Experimental data: PubChem BioAssay AID1508597 (Cure First, 2020)
Screen: 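Survival screen with siRNA in ovarian cancer cells derived from patients, with or without rucaparib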 (primary screen). System: human ovarian carcinoma lines grown from tumours: OCI-P5x (papillary serous) and OCI-C5x (clear cell). Reagents: siRNA pool against human genes, 1.25 pmol siRNA per well. Timing: 72 h or 96 h, depending on the cell culture. Challenge: rucaparib 20 µM (about IC30) or vehicle, present until read-out. Rucaparib or vehicle: Vehicle. Cell line: OCI-P5x (serous). Measured: 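ATP luminescence measured at 72 or 96 h according to the culture, then normalised and expressed as percent viability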. Direction: viability, normalised: higher = more viable cells remaining. Hit rule: 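Active when normalised viability falls below 80 percent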. Meaning of the calls: active = viability under 80%; inactive = viability 80% or more.
Shown is an unselected part of the about 2,100 reagents, in one setting of the screen. 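Calls flag viability under 80% in either arm, not effects specific to rucaparib; the reference for percent is not stated.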 No sequences are given here. Not stated in the record: the 100% reference.

Which result is listed for MACROD1, technical replicate 1?
viability, normalised (%): 62.8; activity call: active

With MACROD1, technical replicate 2, what was measured?
viability, normalised (%): 71.5; activity call: active

What is on record for MACROD1, technical replicate 3?
viability, normalised (%): 74.6; activity call: active

With WAPL, technical replicate 1, what does the deposit list?
viability, normalised (%): 93.6; activity call: inactive

How did the screen score WAPL, technical replicate 2?
viability, normalised (%): 68.7; activity call: active

With WAPL, technical replicate 3, what does the deposit list?
viability, normalised (%): 81.7; activity call: inactive

Reagents listed above called active:
MACROD1, technical replicate 1 — viability, normalised (%) = 62.8; activity call = active
MACROD1, technical replicate 2 — viability, normalised (%) = 71.5; activity call = active
MACROD1, technical replicate 3 — viability, normalised (%) = 74.6; activity call = active
WAPL, technical replicate 2 — viability, normalised (%) = 68.7; activity call = active

The results go on.
Which result is listed for CAMKV, technical replicate 1?
viability, normalised (%): 70.2; activity call: active

For CAMKV, technical replicate 2, what was measured?
viability, normalised (%): 70.5; activity call: active

Which result is listed for CAMKV, technical replicate 3?
viability, normalised (%): 26; activity call: active

With NDC80, technical replicate 1, how do the results read?
viability, normalised (%): 33; activity call: active

Which result is listed for NDC80, technical replicate 2?
viability, normalised (%): 37.4; activity call: active

With NDC80, technical replicate 3, how do the results read?
viability, normalised (%): 37; activity call: active
